Reference: paper PMC8122443
These are yes or no findings as the source states them, for the method shown.

Molecular target: OsWRKY55 (rice (Oryza sativa japonica cv Kitaake))
Experiment: two-hybrid; BD-OsWRKY55 (pGBKT7) as bait, AD-OsMPK (pGADT7) as prey, Y2H Gold yeast; growth on SD/-Trp-Leu-His plates containing 0, 0.2 or 0.4 mM 3-AT at 30 °C for 3 days; the bait auto-activates at 0 mM 3-AT

binding: no binding
B1: OsMPK3 (enzyme, UniProt Q10N20 1-369)
chain: MDGAPVAEFRPTMTHGGRYLLYDIFGNKFEVTNKYQPPIMPIGRGAYGIVCSVMNFETREMVAIKKIANAFNNDMDAKRTLREIKLLRHLDHENIIGIRDVIPPPIPQAFNDVYIATELMDTDLHHIIRSNQELSEEHCQYFLYQILRGLKYIHSANVIHRDLKPSNLLLNANCDLKICDFGLARPSSESDMMTEYVVTRWYRAPELLLNSTDYSAAIDVWSVGCIFMELINRQPLFPGRDHMHQMRLITEVIGTPTDDELGFIRNEDARKYMRHLPQYPRRTFASMFPRVQPAALDLIERMLTFNPLQRITVEEALDHPYLERLHDIADEPICLEPFSFDFEQKALNEDQMKQLIFNEAIEMNPNIRY
